# This is one part of the list. For some of these results: At the low end of the ranking, values are background and their order means little.
# Assays:
# Details in all cases: 10 mM Tris-Cl pH 7.5, 50 mM NaCl, 1 mM DTT, 0.25 mg/ml BSA, 2 mM MgCl2, 0.025% Nonidet P-40, 5% glycerol; 28 nM nucleosome library; 10 min on ice then 30 min …; high values mean tight binding; double strand, one strand shown
# [1] = tested on: KLF4 + histone octamer; experiment: EMSA with sequencing
# [2] = tested on: SOX2 + histone octamer; experiment: EMSA with sequencing
# [3] = tested on: c-MYC + MAX + histone octamer; experiment: EMSA with sequencing
# [4] = tested on: OCT4 + histone octamer; experiment: Pioneer-seq (competitive nucleosome EMSA with sequencing)
Sequence,binding signal (log2 relative supershift) [1],binding signal (log2 relative supershift) [2],binding signal (log2 relative supershift) [3],binding signal (log2 relative supershift) [4]
GATGGACCCTATACGCGGCTGTGCTAGCAATTCTAAACAATGCAATAAAATTCTCTTCCCCACTGGAGTAAACTGCTCCCACCACTCCTCCTCCTTAGTCAGTCCCTAGTGGGGAAAAAGTCCCCACCCCTTGATGGGAGTGGTGACAAAGTCACATTGCAAAGGGGCACATGCACTGGGTTGGGAAGAATTATTACAGCCCACTTTGTATGCCAGTCGGATAGTGTTCC,2.09,1.44,0.0331,-0.23
GATGGACCCTATACGCGGCCTCCTGTTACATTCACCCTGTCCTTCTTATAATCCTTTTGGGCTTGTATCAACACGACGTGACCAAGTTCTCACTTGTTCTGGTTACTTCACGCATGCTTACACCAACCCCACAGAAAGCCAGCCCCTGTGGGCCACAGAGCCCAGCTCAGGCAGTGCAAGCTGTGGGCCCCCTGGGGCTCTCTGTCTTCTTGCCAGTCGGATAGTGTTCC,1.14,0.212,0.306,-0.387
GATGGACCCTATACGCGGCAGAAAGCATCCGGTAATGTCTGTCCCTTATCTGAACAGCCCTCTCTATACCTTGTCACTCACTGCTCCCCTGACTTGCTTGATGTGACTTGGTTCTCTGTGTCAATGATAGGCTCTTGTATGTGACTGGCAACACCCACATTCATATGAAAATCACTCCCTCTGCTATTTGAACTTTCATCCTGTGATGAATGCCAGTCGGATAGTGTTCC,1.41,0.822,0.00373,-0.279
GATGGACCCTATACGCGGCATGGTTTTGCCTATGTCCACCTACTGAGAGGGATAGTATAATTACCTTAACAATGATGCTCCCTTCATCATAGCCCAAAGCGACATTGTTTGACCCTCTTAGACTGGCCACGCACCATACCCTCTCCATTCCATAATTCAGTGTGCTCTCAAGCCGGTAGGTGCTTGAATGCCAAATACGTACTGTTCCTATGCCAGTCGGATAGTGTTCC,1.23,0.705,0.401,-0.265
GATGGACCCTATACGCGGCGCTGCAGTTTAAGCCAAGATTGTGAATCCGAAGTCTTCTTTGACCACTGATTGTCGTGTAAAGCACAGCACACTGTAGAAGCAACATTGAGGTCACATGTTTTTCTGATTAACATATCCACCCAAGCTAACTTGATCTTACTTGCATTTACAAAACACTGTGTACAGATAGATAAAAGACCTCTAACTATTTGCCAGTCGGATAGTGTTCC,0.0732,1.46,0.0563,-0.0168
GATGGACCCTATACGCGGCTCTTGCACCAGTGAAAACTCTGTTACCACACAACTGGAGTTCATACACTGGCATCTAGGAGCCACTCTTTTAGAGCAGTGTTTCCATCTCAAACCATACCATTGTCTAGTAAGCTGACCATTTGCTTTTGGGAACCCAGATGTGAAGAAGTGAAGGAGGGGAGAGGAAGAGAGAACAGAACTAAGATGTTTTGCCAGTCGGATAGTGTTCC,1.99,0.831,0.14,-0.0258
GATGGACCCTATACGCGGCGCTTGGTGCCTTCAGCAGGGGGTTCTGTGAAGGAGTAGCAGAGATGACAGCAGCAGAGACAGACAGACAGGGTGGGATGAAAATGTGGCAGGTGCAGAAAATGCAGCCGACTTTCTTTTGAGCAATGAGGAGCCATTGAAGAGTGTTGAAAAGCACATGGGGCAGGGCCTGTAGTAAGTGTTCGATAATTGTGCCAGTCGGATAGTGTTCC,2.41,0.405,0.885,-0.306
GATGGACCCTATACGCGGCGCATGCACTCACATGATTGAATGTGCACACACCCAGAGATGCACACACACACATCTAATCAGATGTGCACCCCCACACAGATATGCACATGTGCACACCCACAGGATCGAATGTGCACGCCTAATCAGATGTGTACACCCCTCCCACATATGTACACATGCACACTAACACAAATGTGTACACACCCGCAGTGCCAGTCGGATAGTGTTCC,2.24,0.275,0.837,-0.0394
GATGGACCCTATACGCGGCACCCACAATCATGGCAGTAGCTGGAGATAGCAGGAAGGAAAGACAATGTGTTGGCCAAGGGGTACCTCACTAACTTTCCATCCCACGACTCATCCACCCTTTATCCACCCATCCATCTATCCACCCACTCATTCATTCATTTGCTTATTTATTGGCTCATCTCTCCTTTTGTCTACCCACTCATTCAACTATGCCAGTCGGATAGTGTTCC,1.55,2.02,0.17,-0.0949
GATGGACCCTATACGCGGCTGTTTTGTATGCATGAGTTCTAAACCACCCATCCCCACAAAGGAGTTTCCTTACATTTTTACTCTGTATGTGGGTGTGTTTGGAAAGATGAGAAAGAAACATCATTATTATGCATGGTACTGGTAAACAACACCACCACCACCACCCAGACACACAAAAAAATGGAACAGAATAGAGAGCCCAGAAATAGGTGCCAGTCGGATAGTGTTCC,2.62,1.86,0.0765,-0.509

# Full records, quoted from the list. Order of values: binding signal (log2 relative supershift) [1] | binding signal (log2 relative supershift) [2] | binding signal (log2 relative supershift) [3] | binding signal (log2 relative supershift) [4]
# GATGGACCCTATACGCGGCGCTTGGTGCCTTCAGCAGGGGGTTCTGTGAAGGAGTAGCAGAGATGACAGCAGCAGAGACAGACAGACAGGGTGGGATGAAAATGTGGCAGGTGCAGAAAATGCAGCCGACTTTCTTTTGAGCAATGAGGAGCCATTGAAGAGTGTTGAAAAGCACATGGGGCAGGGCCTGTAGTAAGTGTTCGATAATTGTGCCAGTCGGATAGTGTTCC reads 2.41 | 0.405 | 0.885 | -0.306
# GATGGACCCTATACGCGGCAGAAAGCATCCGGTAATGTCTGTCCCTTATCTGAACAGCCCTCTCTATACCTTGTCACTCACTGCTCCCCTGACTTGCTTGATGTGACTTGGTTCTCTGTGTCAATGATAGGCTCTTGTATGTGACTGGCAACACCCACATTCATATGAAAATCACTCCCTCTGCTATTTGAACTTTCATCCTGTGATGAATGCCAGTCGGATAGTGTTCC reads 1.41 | 0.822 | 0.00373 | -0.279
